Test results taken from patent US20240034757A1.
Results are given in words; binding and its absence hold for the method and conditions named.

Amino acid sequences for entries named in this document (tags omitted). Residues count along the entry.
UniProt Q9Y4X3, residues 25-112: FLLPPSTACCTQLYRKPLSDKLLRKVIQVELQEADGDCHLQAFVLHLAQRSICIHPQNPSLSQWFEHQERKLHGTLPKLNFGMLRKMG
UniProt P78556, residues 27-96: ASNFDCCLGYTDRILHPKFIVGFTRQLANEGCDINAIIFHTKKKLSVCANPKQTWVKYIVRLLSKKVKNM
UniProt P80162, residues 38-114: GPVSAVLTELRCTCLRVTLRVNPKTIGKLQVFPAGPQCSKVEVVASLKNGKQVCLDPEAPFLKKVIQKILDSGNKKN
UniProt P48061, residues 22-89: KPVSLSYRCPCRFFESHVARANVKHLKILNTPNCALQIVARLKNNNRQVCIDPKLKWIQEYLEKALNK
UniProt O14625, residues 22-94: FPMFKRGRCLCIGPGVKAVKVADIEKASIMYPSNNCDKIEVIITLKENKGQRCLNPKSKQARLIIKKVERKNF
UniProt P10147, residues 24-92: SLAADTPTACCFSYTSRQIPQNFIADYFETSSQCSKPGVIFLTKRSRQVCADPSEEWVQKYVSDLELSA
UniProt P42830, residues 41-114: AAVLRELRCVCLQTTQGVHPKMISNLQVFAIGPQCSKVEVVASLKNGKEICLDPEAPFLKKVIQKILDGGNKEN
UniProt Q9NRJ3, residues 23-127: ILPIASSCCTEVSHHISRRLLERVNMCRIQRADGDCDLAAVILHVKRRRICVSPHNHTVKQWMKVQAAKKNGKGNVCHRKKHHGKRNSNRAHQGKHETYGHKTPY
UniProt P55773, residues 22-120: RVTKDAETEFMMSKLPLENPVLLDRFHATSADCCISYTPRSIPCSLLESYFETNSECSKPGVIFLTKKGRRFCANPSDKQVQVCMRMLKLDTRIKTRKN
UniProt Q16663, residues 22-113: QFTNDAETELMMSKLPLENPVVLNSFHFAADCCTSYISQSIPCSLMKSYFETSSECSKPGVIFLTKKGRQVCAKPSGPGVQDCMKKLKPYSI
UniProt O95715, residues 35-111: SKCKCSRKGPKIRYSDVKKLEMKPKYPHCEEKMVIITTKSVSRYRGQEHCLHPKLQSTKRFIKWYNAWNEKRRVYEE
UniProt O15467, residues 24-120: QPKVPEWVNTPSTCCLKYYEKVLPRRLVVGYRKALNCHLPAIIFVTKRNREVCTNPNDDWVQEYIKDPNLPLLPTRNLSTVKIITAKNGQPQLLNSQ
UniProt P13501, residues 24-91: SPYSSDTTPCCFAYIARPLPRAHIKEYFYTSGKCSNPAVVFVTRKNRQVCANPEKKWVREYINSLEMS
UniProt P02775, residues 59-128: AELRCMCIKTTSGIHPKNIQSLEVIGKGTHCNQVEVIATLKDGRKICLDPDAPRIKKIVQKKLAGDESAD
UniProt O00175, residues 27-104: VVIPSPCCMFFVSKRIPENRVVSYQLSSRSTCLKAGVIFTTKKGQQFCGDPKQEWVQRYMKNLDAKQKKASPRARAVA
UniProt P09341, residues 35-107: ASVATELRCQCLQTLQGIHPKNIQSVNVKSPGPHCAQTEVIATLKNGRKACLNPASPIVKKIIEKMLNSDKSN
UniProt Q92583, residues 24-94: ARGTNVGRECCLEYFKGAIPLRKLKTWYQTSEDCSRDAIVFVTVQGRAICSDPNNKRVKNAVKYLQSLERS
UniProt O43927, residues 23-109: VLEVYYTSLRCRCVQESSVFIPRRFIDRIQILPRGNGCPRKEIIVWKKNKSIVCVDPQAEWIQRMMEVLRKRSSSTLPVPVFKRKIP
UniProt Q99731, residues 22-98: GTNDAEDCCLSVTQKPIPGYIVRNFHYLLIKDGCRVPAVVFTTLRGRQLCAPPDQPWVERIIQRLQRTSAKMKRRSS
UniProt Q16627, residues 22-93: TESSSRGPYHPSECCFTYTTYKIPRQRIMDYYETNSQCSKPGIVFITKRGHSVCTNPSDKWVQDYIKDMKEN
UniProt P02776, residues 32-101: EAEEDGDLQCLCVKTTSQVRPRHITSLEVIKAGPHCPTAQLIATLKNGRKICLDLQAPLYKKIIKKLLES
UniProt P10145, residues 28-99: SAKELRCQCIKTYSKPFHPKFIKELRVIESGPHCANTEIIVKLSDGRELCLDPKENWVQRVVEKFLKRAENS
UniProt P22362, residues 24-96: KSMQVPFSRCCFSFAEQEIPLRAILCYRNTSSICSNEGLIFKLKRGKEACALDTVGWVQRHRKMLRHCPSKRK
UniProt P19876, residues 35-107: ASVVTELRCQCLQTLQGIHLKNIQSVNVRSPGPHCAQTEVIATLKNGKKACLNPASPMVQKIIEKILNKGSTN
UniProt P19875, residues 35-107: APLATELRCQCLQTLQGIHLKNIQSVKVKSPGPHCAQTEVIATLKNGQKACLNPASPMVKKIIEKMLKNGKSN
UniProt P78423, residues 25-100: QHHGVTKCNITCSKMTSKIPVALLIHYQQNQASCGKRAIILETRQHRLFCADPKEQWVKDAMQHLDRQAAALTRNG
UniProt O00585, residues 24-134: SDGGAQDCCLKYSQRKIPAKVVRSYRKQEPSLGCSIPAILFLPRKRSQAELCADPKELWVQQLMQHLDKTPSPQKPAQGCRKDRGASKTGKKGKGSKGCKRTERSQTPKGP
UniProt P02778, residues 22-98: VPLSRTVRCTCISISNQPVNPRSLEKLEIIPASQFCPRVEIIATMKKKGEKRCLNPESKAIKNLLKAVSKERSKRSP
UniProt Q07325, residues 23-125: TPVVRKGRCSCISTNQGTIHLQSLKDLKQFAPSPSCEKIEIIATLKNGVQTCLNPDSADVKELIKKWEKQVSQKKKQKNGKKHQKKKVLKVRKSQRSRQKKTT
UniProt P55774, residues 21-89: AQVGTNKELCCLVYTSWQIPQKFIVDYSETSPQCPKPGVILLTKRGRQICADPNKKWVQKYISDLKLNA

Legend:
CCL27_HUMAN (human) = CCL27_HUMAN (human) (UniProt Q9Y4X3); test: BLI, empty cell the 12th table, row 93, column 5
CCL20_HUMAN (human) = CCL20_HUMAN (human) (UniProt P78556); test: BLI, empty cell the 12th table, row 86, column 5
CXCL6_HUMAN (human) = CXCL6_HUMAN (human) (UniProt P80162); test: BLI, empty cell the 12th table, row 101, column 5
CXCL12_HUMAN (human) = CXCL12_HUMAN (human) (UniProt P48061); test: BLI, empty cell the 12th table, row 107, column 5
CXCL11_HUMAN (human) = CXCL11_HUMAN (human) (UniProt O14625); test: BLI, empty cell the 12th table, row 106, column 5
CCL3_HUMAN (human) = CCL3_HUMAN (human) (UniProt P10147); test: BLI, empty cell the 12th table, row 71, column 5
CXCL5_HUMAN (human) = CXCL5_HUMAN (human) (UniProt P42830); test: BLI, empty cell the 12th table, row 100, column 5
CCL28_HUMAN (human) = CCL28_HUMAN (human) (UniProt Q9NRJ3); test: BLI, empty cell the 12th table, row 94, column 5
CCL23_HUMAN (human) = CCL23_HUMAN (human) (UniProt P55773); test: BLI, empty cell the 12th table, row 89, column 5
CCL15_HUMAN (human) = CCL15_HUMAN (human) (UniProt Q16663); test: BLI, empty cell the 12th table, row 81, column 5
CXCL14_HUMAN (human) = CXCL14_HUMAN (human) (UniProt O95715); test: BLI, empty cell the 12th table, row 109, column 5
CCL16_HUMAN (human) = CCL16_HUMAN (human) (UniProt O15467); test: BLI, empty cell the 12th table, row 82, column 5
CCL5_HUMAN (human) = CCL5_HUMAN (human) (UniProt P13501); test: BLI, empty cell the 12th table, row 75, column 5
CXCL7_HUMAN (human) = CXCL7_HUMAN (human) (UniProt P02775); test: BLI, empty cell the 12th table, row 102, column 5
CCL24_HUMAN (human) = CCL24_HUMAN (human) (UniProt O00175); test: BLI, empty cell the 12th table, row 90, column 5
CXCL1_HUMAN (human) = CXCL1_HUMAN (human) (UniProt P09341); test: BLI, empty cell the 12th table, row 96, column 5
CCL17_HUMAN (human) = CCL17_HUMAN (human) (UniProt Q92583); test: BLI, empty cell the 12th table, row 83, column 5
CXCL13_HUMAN (human) = CXCL13_HUMAN (human) (UniProt O43927); test: BLI, empty cell the 12th table, row 108, column 5
CCL19_HUMAN (human) = CCL19_HUMAN (human) (UniProt Q99731); test: BLI, empty cell the 12th table, row 85, column 5
CCL14_HUMAN (human) = CCL14_HUMAN (human) (UniProt Q16627); test: BLI, empty cell the 12th table, row 80, column 5
CXCL4_HUMAN (human) = CXCL4_HUMAN (human) (UniProt P02776); test: BLI, empty cell the 12th table, row 99, column 5
CXCL8_HUMAN (human) = CXCL8_HUMAN (human) (UniProt P10145); test: BLI, empty cell the 12th table, row 103, column 5
CCL1_HUMAN (human) = CCL1_HUMAN (human) (UniProt P22362); test: BLI, empty cell the 12th table, row 69, column 5
CXCL3_HUMAN (human) = CXCL3_HUMAN (human) (UniProt P19876); test: BLI, empty cell the 12th table, row 98, column 5
CXCL2_HUMAN (human) = CXCL2_HUMAN (human) (UniProt P19875); test: BLI, empty cell the 12th table, row 97, column 5
XCL1_HUMAN (human) = target: T1, XCL1_HUMAN (human) (UniProt P47992); test: BLI, empty cell the 12th table, row 113, column 5
T1 sequence: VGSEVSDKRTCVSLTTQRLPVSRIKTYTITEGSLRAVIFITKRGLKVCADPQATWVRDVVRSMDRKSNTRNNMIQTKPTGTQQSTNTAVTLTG

CX3CL1_HUMAN (human) = CX3CL1_HUMAN (human) (UniProt P78423); test: BLI, empty cell the 12th table, row 95, column 5
CCL21_HUMAN (human) = CCL21_HUMAN (human) (UniProt O00585); test: BLI, empty cell the 12th table, row 87, column 5
CXCL10_HUMAN (human) = CXCL10_HUMAN (human) (UniProt P02778); test: BLI, empty cell the 12th table, row 105, column 5
CXCL9_HUMAN (human) = CXCL9_HUMAN (human) (UniProt Q07325); test: BLI, empty cell the 12th table, row 104, column 5
CCL18_HUMAN (human) = CCL18_HUMAN (human) (UniProt P55774); test: BLI, empty cell the 12th table, row 84, column 5

Measured: binding

B1: P1183_AMBTR (protein)
chain: EAPKDDFEYDGGCPFVVLDNGTHVKPAGCSHLCNGAPETLDNIECYNVTEEVAKRMTPGIPYACWLGWCSKGECKRDNRTEVCYRGSEEE
no binding (tested: 300 nM): all assays above
